Source: patent US9056835B2, “LPA2 receptor-specific benzoic acid derivatives” (University of Tennessee Research Foundation, priority 2012, dated 2015)
Some entries share one result that the patent states for a list of compounds.

Test system: vector- and LPA2-transduced MEF cells
Assay: Adriamycin-induced apoptosis, caspase activity assay
Assay type: cell-based, mouse
Conditions: GRI977143 10 μM, LPA and OTP 1 μM
Description: Experiments were performed on vector- and LPA2-transduced MEF cells. To measure caspase 3, 7, 8, or 9 activity and DNA fragmentation, cells were plated in 48-well plates (2×10^4 cells/well). To detect PARP-1 cleavage and Bax translocation, 1.5×10^6 cells were plated in 10-cm dishes and cultured overnight in full growth medium. The next morning, the growth medium was replaced by serum-starvation medium and cells were pretreated for 1 h with LPA (1-10 μM), OTP (1-10 μM), GRI977143 (1-10 μM), or vehicle. Caspase activity, DNA fragmentation, PARP-1 cleavage, and Bax translocation were measured 5 h after incubation with 1.7 μM Adriamycin or 24 h after serum withdrawal.
Caspase-Glow® 3/7, Caspase-Glow® 8 and Caspase-Glow® 9 reagents were purchased from Promega (Madison, Wis.) and used according to the manufacturer's instructions. Briefly, cells were lysed by adding 50 μl of lysis reagent per well, followed by shaking for 30 min at room temperature. […] lysate were transferred to a 96-well white-wall plate, and luminescence was measured using a BioTek® (Winooski, Vt.) plate reader.

## octadecenyl thiophosphate [OTP]
  decrease in caspase 9 activation: 20-24%
